Reference: patent US20100093624A1, “PEPTIDE THERAPEUTICS THAT BIND VEGF AND METHODS OF USE THEREOF” (Cosmix Therapeutics LLC, priority 2008, published 2010)
No constants are given. Whether binding was seen depends on the method and setting. Some binding calls cover weakened binding; strength is not graded here.

Protein sequences, listed by entry. Tags and fused reporters are not part of them. Residues count along the entry.
UniProt P02769, residues 25-607: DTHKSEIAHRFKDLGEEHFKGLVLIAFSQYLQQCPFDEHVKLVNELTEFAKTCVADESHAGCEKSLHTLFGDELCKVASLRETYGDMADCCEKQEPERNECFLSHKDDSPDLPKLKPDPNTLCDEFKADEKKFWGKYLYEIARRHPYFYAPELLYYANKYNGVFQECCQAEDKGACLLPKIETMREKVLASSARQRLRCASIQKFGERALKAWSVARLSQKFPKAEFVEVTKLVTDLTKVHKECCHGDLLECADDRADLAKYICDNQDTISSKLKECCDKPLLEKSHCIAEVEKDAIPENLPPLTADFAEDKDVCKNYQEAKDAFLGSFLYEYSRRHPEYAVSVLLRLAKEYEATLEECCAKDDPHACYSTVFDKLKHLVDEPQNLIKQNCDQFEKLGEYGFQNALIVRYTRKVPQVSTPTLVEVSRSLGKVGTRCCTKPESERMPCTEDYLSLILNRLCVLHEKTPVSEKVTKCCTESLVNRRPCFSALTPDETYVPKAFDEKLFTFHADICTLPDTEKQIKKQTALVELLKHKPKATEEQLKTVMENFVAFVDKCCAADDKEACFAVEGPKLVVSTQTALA

Target: contr. (BSA) (bovine) (UniProt P02769)
Experiment: ELISA: 1% BSA coated as control, biotinylated L-peptide, streptavidin-peroxidase

B1: Peptide 07-007 (L-form; original starting sequence of G2306) (peptide)
peptide: GNALHWVCASNICWRSPWAGRLWGLVRLT
modifications: N-terminal acetyl (Ac-); C-terminal PEG-Bio (PEG spacer and biotin); all L-form
binding: binds

B2: Peptide 07-072 (L-form; variant carrying all three hot spot mutations) (peptide)
peptide: SGSSSGSGSGNALHWVCASNICWRTPWAGQLWRLVRLT
modifications: free N-terminus (H2N-); C-terminal PEG-Bio (PEG spacer and biotin); all L-form
binding: binds
